The list shows only some results of the screen, not a fair sample: it gathers tests that were run many times, whatever their T/C, doses with no T/C, and many T/C values between a quarter and a half above the control. Further doses and runs are listed elsewhere. T/C: endpoint of the treated group in % of that of the vehicle group. Some doses have a count of surviving animals in place of a T/C: the source holds a T/C of zero for them, seemingly a mark for toxic or unscored doses. Some doses without a T/C left all or most animals alive at the check, yet need not have been tolerated: the source hardly ever lists a survival T/C far under the control, and the zero likely stands for such cases as well. Survivors were counted at the toxicity check, usually on the fifth day, unless a day is given; later deaths do not show. Schedules are NCI's codes, read here as Q, the interval in days (D) or hours (H), X, the number of doses. Some doses were run more than once; their values stand side by side, smallest first. For survival time, this PubChem deposit counts one and a half times the control or more as active, and values a quarter to a half above the control carry no call in these data; other NCI protocols may use other cut-offs. Some T/C values carry the count of animals alive at the toxicity check (mostly the fifth day); where none is given, no animal had died by that day.
System: B6C3F1 mice, ip Sarcoma M5076, median survival T/C
Assay: NCI In Vivo Anticancer Drug Screen. Data for tumor model Sarcoma M5076 (intraperitoneal) in B6C3F1 mice
Details: T/C endpoint: median survival time, schedule: Q04DX004 (ip), higher T/C = longer survival
Method in brief: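 Survival measured in treated (T) and vehicle control (C) mice with transplantable tumour; result given as T divided by C.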

[1] = dose: 100.0 mg/kg/injection, vehicle: saline with Tween-80
[2] = dose: 200.0 mg/kg/injection, vehicle: saline with Tween-80
[3] = dose: 400.0 mg/kg/injection, vehicle: saline with Tween-80
[4] = dose: 800.0 mg/kg/injection, vehicle: Klucel (hydroxypropylcellulose) (HPC)
[5] = dose: 800.0 mg/kg/injection, vehicle: suspension in saline
[6] = dose: 50.0 mg/kg/injection, vehicle: saline
[7] = dose: 400.0 mg/kg/injection, vehicle: saline
[8] = dose: 50.0 mg/kg/injection, vehicle: saline with Tween-80
[9] = dose: 100.0 mg/kg/injection, vehicle: saline
[10] = dose: 2.0 mg/kg/injection, vehicle: water

**Q.** Which T/C (dose: 18.75 mg/kg/injection, vehicle: saline) does the source give for `O=C(O)C(O)C(O)C1[O][Sb][O]C1C(=O)O` (stereo not given) here?
**A.** 131 % of control [9 of 10 alive on day 14]

**Q.** And the T/C (dose: 37.5 mg/kg/injection, vehicle: saline)?
**A.** 132 % of control [9 of 10 alive on day 14]

**Q.** And the T/C (dose: 75.0 mg/kg/injection, vehicle: saline)?
**A.** 132 % of control [9 of 10 alive on day 14]

**Q.** And the survivor count (dose: 150.0 mg/kg/injection, vehicle: saline)?
**A.** 0 of 10 on day 14, 2 of 7 on day 14, 3 of 10 on day 14

**Q.** What about the survivor count (dose: 300.0 mg/kg/injection, vehicle: saline) of the same compound?
**A.** 0 of 10 on day 14

**Q.** For `NC12CC3CC(CC(C3)C1)C2`, which survivor count [1] is on record?
**A.** 9 of 10 on day 14

**Q.** And the survivor count [2]?
**A.** 0 of 10 on day 14

**Q.** What about the survivor count [3] of the same compound?
**A.** 0 of 10 on day 14

**Q.** What does the source list for `NC(=S)c1ncn(C2OC(COC=O)C(OC=O)C2OC=O)c1NC=O` (stereo not given)?
**A.** T/C (dose: 50.0 mg/kg/injection, vehicle: Klucel (hydroxypropylcellulose) (HPC)): 139 % of control; T/C (dose: 100.0 mg/kg/injection, vehicle: Klucel (hydroxypropylcellulose) (HPC)): 139 % of control; T/C (dose: 200.0 mg/kg/injection, vehicle: Klucel (hydroxypropylcellulose) (HPC)): 140 % of control [9 of 10 alive on day 14]; survivor count [4]: 0 of 10 on day 14

**Q.** `NC(=S)N/N=C/c1ncccc1O` was tested. Which survivor count [5] did it give?
**A.** 0 of 10 on day 14

**Q.** `CC1=C(C(N)=O)C(c2ccccc2)NC(=S)N1` (stereo not given) was tested. Which survivor count (dose: 400.0 mg/kg/injection, vehicle: Klucel (hydroxypropylcellulose) (HPC)) did it give?
**A.** 5 of 10 on day 14

**Q.** And the survivor count [4]?
**A.** 0 of 10 on day 14

**Q.** For `Cc1ccc2c(c1)n([O-])c1cc(Cl)ccc1[n+]2=O`, which T/C [2] is on record?
**A.** 127 % of control

**Q.** And the T/C (dose: 240.0 mg/kg/injection, vehicle: saline with Tween-80)?
**A.** 125 % of control

**Q.** What about the T/C [3] of the same compound?
**A.** 130 % of control

**Q.** And the survivor count [3]?
**A.** 7 of 10 on day 14

**Q.** What about the T/C (dose: 666.67 mg/kg/injection, vehicle: saline with Tween-80) of the same compound?
**A.** 130 % of control

**Q.** What about the survivor count (dose: 1111.12 mg/kg/injection, vehicle: saline with Tween-80) of the same compound?
**A.** 6 of 10 on day 14

**Q.** With `CCn1c2ccc(N)cc2c2c3ncc4cccn4c3ccc21` as the compound, how does the survivor count (dose: 600.0 mg/kg/injection, vehicle: saline with Tween-80) read?
**A.** 9 of 10 on day 14

**Q.** How did the T/C (dose: 200.0 mg/kg/injection, vehicle: suspension in saline) turn out when `C=CC(=O)NCNC(=O)C=C` was run?
**A.** 137 % of control

**Q.** And the survivor count (dose: 400.0 mg/kg/injection, vehicle: suspension in saline)?
**A.** 0 of 10 on day 14

**Q.** And the survivor count [5]?
**A.** 0 of 10 on day 14

**Q.** Which results are given for `Cn1nnc2c(C(N)=O)ncn2c1=O`?
**A.** T/C [6]: 142 % of control; survivor count [7]: 0 of 10 on day 14; survivor count (dose: 800.0 mg/kg/injection, vehicle: saline): 0 of 10 on day 14

**Q.** What does the source list for `COc1cc2c(c3c1/c(=N\N=c1/c4ccccc4n(C)c4c5c(cc(OC)c14)OC(C)(C)C=C5)c1ccccc1n3C)C=CC(C)(C)O2`?
**A.** survivor count (dose: 25.0 mg/kg/injection, vehicle: saline with Tween-80): 6 of 10 on day 14; survivor count [8]: 5 of 10 on day 14; survivor count [1]: 3 of 10 on day 14; survivor count [2]: 0 of 10 on day 14

**Q.** For `C=CC(=O)OCCOCN(COCCOC(=O)C=C)c1nc(N(COCCOC(=O)C=C)COCCOC(=O)C=C)nc(N(COCCOC(=O)C=C)COCCOC(=O)C=C)n1`, which survivor count (dose: 300.0 mg/kg/injection, vehicle: saline with Tween-80) is on record?
**A.** 0 of 10 on day 14

**Q.** For `Cc1ccc(C(=O)Nc2ccc(S(=O)(=O)O)c3cc(S(=O)(=O)O)cc(S(=O)(=O)O)c23)cc1NC(=O)c1cccc(NC(=O)Nc2cccc(C(=O)Nc3cc(C(=O)Nc4ccc(S(=O)(=O)O)c5cc(S(=O)(=O)O)cc(S(=O)(=O)O)c45)ccc3C)c2)c1`, which T/C [9] is on record?
**A.** 136 % of control

**Q.** What about the T/C (dose: 200.0 mg/kg/injection, vehicle: saline) of the same compound?
**A.** 143 and 144 % of control

**Q.** And the survivor count [7]?
**A.** 0 of 10 on day 14

**Q.** With `CS(=O)(=O)CS(=O)(=O)OCCF` as the compound, how does the T/C (dose: 6.25 mg/kg/injection, vehicle: saline) read?
**A.** 128 and 130 % of control

**Q.** What about the T/C (dose: 10.8 mg/kg/injection, vehicle: saline) of the same compound?
**A.** 131 % of control

**Q.** And the T/C (dose: 12.5 mg/kg/injection, vehicle: saline)?
**A.** 144 % of control

**Q.** What about the survivor count [6] of the same compound?
**A.** 6 of 10 on day 14

**Q.** What about the survivor count (dose: 83.3 mg/kg/injection, vehicle: saline) of the same compound?
**A.** 3 of 10 on day 14

**Q.** And the survivor count [9]?
**A.** 0 of 10 on day 14 and 1 of 10 on day 14

**Q.** `CCCCCCCCCCCCN1C(C)=CS/C1=C\C=C\c1scc(C)[n+]1CCCCCCCCCCCC` was tested. Which T/C (dose: 3.0 mg/kg/injection, vehicle: saline with Tween-80) did it give?
**A.** 133 % of control

**Q.** And the survivor count (dose: 6.0 mg/kg/injection, vehicle: saline with Tween-80)?
**A.** 3 of 10 on day 14

**Q.** And the survivor count (dose: 12.0 mg/kg/injection, vehicle: saline with Tween-80)?
**A.** 0 of 10 on day 14

**Q.** For `COC(=O)[C@@]12OC[C@]34[C@H]([C@@H](O)[C@@H]1O)[C@@]1(C)CC(=O)C(OC(=O)CC(=O)OC5=C(C)[C@@H]6C[C@H]7OC(=O)[C@H](OC(=O)/C=C(\C)C(C)C)[C@H]8[C@]9(C(=O)OC)OC[C@]78[C@H]([C@@H](O)[C@@H]9O)[C@@]6(C)CC5=O)=C(C)[C@@H]1C[C@H]3OC(=O)[C@H](OC(=O)/C=C(\C)C(C)C)[C@@H]24`, which survivor count (dose: 12.0 mg/kg/injection, vehicle: saline + Tween-80 + alcohol) is on record?
**A.** 0 of 10 on day 14

**Q.** Which T/C (dose: 4.0 mg/kg/injection, vehicle: saline + alcohol) does the source give for `C=C1C(O)C2(O)OCC34C(CC5C(C)=CC(=O)C(O)C5(C)C23)OC(=O)C(OC(=O)C/C=C/CCCCCCCC)C14` (stereo not given) here?
**A.** 130 % of control

**Q.** And the T/C (dose: 4.8 mg/kg/injection, vehicle: saline + alcohol)?
**A.** 138 % of control

**Q.** And the T/C (dose: 8.0 mg/kg/injection, vehicle: saline + alcohol, evaluated on day 50)?
**A.** 121 % of control [9 of 10 alive on day 14]

**Q.** And the T/C (dose: 8.0 mg/kg/injection, vehicle: saline + alcohol, evaluated on day 60)?
**A.** 102, 117, 168 % of control

**Q.** What about the survivor count (dose: 13.33 mg/kg/injection, vehicle: saline + alcohol) of the same compound?
**A.** 4 of 10 on day 14

**Q.** What about the survivor count (dose: 16.0 mg/kg/injection, vehicle: saline + alcohol) of the same compound?
**A.** 0 of 10 on day 14

**Q.** And the survivor count (dose: 22.22 mg/kg/injection, vehicle: saline + alcohol)?
**A.** 4 of 10 on day 14 and 5 of 10 on day 14

**Q.** And the survivor count (dose: 32.0 mg/kg/injection, vehicle: saline + alcohol)?
**A.** 0 of 10 on day 14

**Q.** And the survivor count (dose: 64.0 mg/kg/injection, vehicle: saline + alcohol)?
**A.** 0 of 10 on day 14

**Q.** For `Clc1cccc(Cl)c1C(Nc1nncs1)Nc1nncs1`, which T/C [8] is on record?
**A.** 131 % of control

**Q.** What about the T/C [1] of the same compound?
**A.** 125 and 142 % of control

**Q.** What about the T/C [2] of the same compound?
**A.** 127, 136, 137 % of control

**Q.** What about the T/C [3] of the same compound?
**A.** 136 and 140 % of control [9 of 10 alive on day 14]

**Q.** And the survivor count (dose: 800.0 mg/kg/injection, vehicle: saline with Tween-80)?
**A.** 4 of 10 on day 14

**Q.** With `Cc1ccc(C(=O)NC2C(=O)NC(C(C)C)C(=O)N3CCCC3C(=O)N(C)CC(=O)N(C)C(C(C)C)C(=O)OC2C)c2c1Oc1c(c(C(=O)NC3C(=O)NC(C(C)C)C(=O)N4CCCC4C(=O)N(C)CC(=O)N(C)C(C(C)C)C(=O)OC3C)c3nc(-c4ccccc4)c(=O)oc3c1C)N2` (stereo not given) as the compound, how does the T/C (dose: 0.5 mg/kg/injection, vehicle: water) read?
**A.** 127 % of control

**Q.** What about the survivor count (dose: 1.0 mg/kg/injection, vehicle: water) of the same compound?
**A.** 10 of 10 on day 14

**Q.** What about the T/C [10] of the same compound?
**A.** 127 % of control

**Q.** And the survivor count [10]?
**A.** 0 of 10 on day 14

**Q.** What about the survivor count (dose: 4.0 mg/kg/injection, vehicle: water) of the same compound?
**A.** 0 of 10 on day 14 and 2 of 10 on day 14

— PubChem BioAssay AID292 (DTP/NCI, 2004)
